{
  "source": "paper doi:10.1101/2022.01.01.474692v1",
  "about": "(bioRxiv, 2022)",
  "assay": "ThT and Congo-red staining of fibrils",
  "format": "physicochemical",
  "conditions": "30 min",
  "data": [
    {"substance": "GNNQQNY [GNNQQNY fibers]", "values": [
      {"measurement": "Congo-red staining of fibrils", "setting": "Congo-red 1 mg/mL, microscopy", "value": "apple-green birefringence"},
      {"measurement": "ThT staining of fibrils", "setting": "ThT 0.8 mg/mL, fluorescence microscopy", "value": "yellow-green fluorescence"}
    ]}
  ]
}
